Experimental data published in PMC7819943, “Rice protein-binding microarrays: a tool to detect cis-acting elements near promoter regions in rice”.
This is one part of the list.

Protein sequences, listed by entry. Tags and fused reporters are not part of them.
UniProt Q0JBA9, entry or part of it: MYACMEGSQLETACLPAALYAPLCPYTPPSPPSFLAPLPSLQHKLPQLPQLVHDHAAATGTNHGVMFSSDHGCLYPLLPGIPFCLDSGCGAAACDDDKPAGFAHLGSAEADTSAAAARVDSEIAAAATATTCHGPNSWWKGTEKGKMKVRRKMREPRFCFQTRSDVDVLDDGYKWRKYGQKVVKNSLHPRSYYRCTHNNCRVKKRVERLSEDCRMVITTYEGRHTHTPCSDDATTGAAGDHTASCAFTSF

The sequences below were run against OsWRKY34 (Oryza sativa, UniProt Q0JBA9 1-250) (assay: protein-binding microarray (RPBM); PBS, 2% BSA, 51.3 ng/ul salmon testes DNA, 50 uM zinc acetate, 200 nM TF, 25 C, 1 h; high values mean tight binding). Conditions: protein: recombinant; tags: N-terminal polyhistidine and DsRed monomer fusion (pET32a); label: CyDye5-dUTP incorporated in the synthesized complementary strand; 3' TTTTT single-stranded linker to array surface; dsDNA, one strand shown.
Procedure, shortened: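 Binding signal is defined as the fluorescence intensity of each feature in arbitrary units, read on an Axon 4000B scanner. Transcription factors with N-terminal polyhistidine and DsRed fusions came from E. coli BL21-CodonPlus and were purified on Ni–NTA. They were incubated at 200 nM for 1 h at 25 °C on a custom Agilent array that had been made double-stranded with Cy5-dUTP, with 50 µM zinc acetate present, and the array was washed.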
For “TGTGGTTTGGGTGCTCTGCTCTCGTGTGACCAGCCGATTTCGGAGTCACCTAGTGCAG”, the binding signal was 9030 fluorescence intensity (a.u.). In the case of “GTTGTCAGTGTGGTTATTGGAGCAGTTGCCATCGATCATGCGGAGTCACCTAGTGCAG”, the binding signal is reported as 9230 fluorescence intensity (a.u.). For “TCACGGTTCGACTACATCGGCTCTTCAGTGTCATCTACCTCGGAGTCACCTAGTGCAG”, the binding signal was 9870 fluorescence intensity (a.u.). In the case of “AACAGGATGGCTTCCGCGCAGGATCCCTTCTACATCGTCACGGAGTCACCTAGTGCAG”, the binding signal is reported as 8810 fluorescence intensity (a.u.). With “ACGAATAGCAGCCTTATCATGTTTGTTTCTGTTTCCGAGACGGAGTCACCTAGTGCAG” the binding signal was 8330 fluorescence intensity (a.u.). In the case of “GCTTATTCTCTCAATTTCAATCGACCGCTGTTAGTATATCCGGAGTCACCTAGTGCAG”, the binding signal is reported as 9540 fluorescence intensity (a.u.). In the case of “AGCACTTCATCTTTTATGCAGATTCTATCAGTTGGAAAATCGGAGTCACCTAGTGCAG”, the binding signal is reported as 8160 fluorescence intensity (a.u.). In the case of “AACCTTAGCATAGTTGCATGTTATATACTTTTCCTGATAACGGAGTCACCTAGTGCAG”, the binding signal is reported as 8470 fluorescence intensity (a.u.). For “TACCTCCGTTTTCTAATAGATGACGCCGTTGACTTTTTCTCGGAGTCACCTAGTGCAG”, the binding signal was 20700 fluorescence intensity (a.u.). “GGAGCTACTATATATTACCGGGGTCTAATGATCTGGATGACGGAGTCACCTAGTGCAG” was tested, and the binding signal was 8530 fluorescence intensity (a.u.). With “GTTTCTTTGCATGCCGACTCATTTCTCCTTTAGTTCAGTGCGGAGTCACCTAGTGCAG” the binding signal was 9900 fluorescence intensity (a.u.). For “CAATTGACGCGCCTCGGTATAACCTCACTAGCTGCGTCATCGGAGTCACCTAGTGCAG”, the binding signal was 8280 fluorescence intensity (a.u.). For “TATTTTCCCTTTCAATTTATCACTGATTTTGCTATGTTTACGGAGTCACCTAGTGCAG”, the binding signal was 9000 fluorescence intensity (a.u.). For “CCTCCATAGCCGCCGCCGCTCCACCACCTTGTGCGGACATCGGAGTCACCTAGTGCAG”, the binding signal was 9560 fluorescence intensity (a.u.). In the case of “CCTCTCACTCTTTCTCACGCTTCACTCTCCTTCCTCCCACCGGAGTCACCTAGTGCAG”, the binding signal is reported as 8660 fluorescence intensity (a.u.). “CCACTCCTCCAATAGCTCATCTGCCGCCGCCGCGTCGTTCCGGAGTCACCTAGTGCAG” was tested, and the binding signal was 11900 fluorescence intensity (a.u.). For “TTAGGCTGACGCACGAGCAAACCACTTGATAGTTGACCGCCGGAGTCACCTAGTGCAG”, the binding signal was 8270 fluorescence intensity (a.u.). For “GAGTCTACCGTACGTCCTTCTCATATATACGTCGGCTTCCCGGAGTCACCTAGTGCAG”, the binding signal was 12600 fluorescence intensity (a.u.). “ACCTTACTTTACCATTGTGGGTGCTCTTAGGAGCAGCTGTCGGAGTCACCTAGTGCAG” was tested, and the binding signal was 8480 fluorescence intensity (a.u.). With “CAGCTACATGCCTCCTGTCTCTGTGCGTCATGCCGTCATCCGGAGTCACCTAGTGCAG” the binding signal was 9300 fluorescence intensity (a.u.). “ACCCTCCTGTTAATCTTTTCTAGATCCGCTCCTGCTTTTCCGGAGTCACCTAGTGCAG” was tested, and the binding signal was 8820 fluorescence intensity (a.u.). In the case of “TCCCACGTACTATTTTTAAATTATTTTTTGCTGACTAGGACGGAGTCACCTAGTGCAG”, the binding signal is reported as 8350 fluorescence intensity (a.u.). With “ACGACTTAACCTCCTCCCTGCCTTGTCCTCATCGGCGCTTCGGAGTCACCTAGTGCAG” the binding signal was 8120 fluorescence intensity (a.u.). With “CATCTCGTCTCCTCTGGTATCCCGGCGGCAGCCACCTTCTCGGAGTCACCTAGTGCAG” the binding signal was 8980 fluorescence intensity (a.u.). “TCTCGTCTCGGCGCCATGTGTTCTGTTCCGATATTTTTTGCGGAGTCACCTAGTGCAG” was tested, and the binding signal was 15600 fluorescence intensity (a.u.). “CTATTGTTTATTTTTCGCGTTCATAGGACCTACATTACCCCGGAGTCACCTAGTGCAG” was tested, and the binding signal was 14200 fluorescence intensity (a.u.). For “TCTCTTTGATTATCTCACTATCTAGTTGGGTGCACAAACACGGAGTCACCTAGTGCAG”, the binding signal was 10100 fluorescence intensity (a.u.). “TTATCAATTTGTTATTGTGTGCCTCGGCTGATTCCTGGATCGGAGTCACCTAGTGCAG” was tested, and the binding signal was 8020 fluorescence intensity (a.u.). With “CTTTCTCGTGTCCTTAGATTTCTTGGTTCTTGGTAACGCCCGGAGTCACCTAGTGCAG” the binding signal was 8840 fluorescence intensity (a.u.). “AGATTACATTTTATCAACGTGCATTCTACTCTTTTGATTACGGAGTCACCTAGTGCAG” was tested, and the binding signal was 10900 fluorescence intensity (a.u.). For “GTCACTTTCACAATCCAAACAAGCACATTTGTCTGCTCTCCGGAGTCACCTAGTGCAG”, the binding signal was 8220 fluorescence intensity (a.u.). “ATATAACGCCACTGCCTCGCCGCCGCTGCTACCACCTCTCCGGAGTCACCTAGTGCAG” was tested, and the binding signal was 9280 fluorescence intensity (a.u.). In the case of “TTTCTCTCACGTTGACCCTTCACATAGCAGTGTTGTAGGACGGAGTCACCTAGTGCAG”, the binding signal is reported as 9080 fluorescence intensity (a.u.). “TTCTCATCGTGTTGTTTTATTTATTATCCTGCGGGTTAATCGGAGTCACCTAGTGCAG” was tested, and the binding signal was 9200 fluorescence intensity (a.u.). “GAAAATTTTTGGGTGTCACATCGGACGTTTGACCGGATGTCGGAGTCACCTAGTGCAG” was tested, and the binding signal was 9700 fluorescence intensity (a.u.). For “TCATTTGCTTTTCCTTTTTGCTGAATAGTGTGAACTTCCTCGGAGTCACCTAGTGCAG”, the binding signal was 10100 fluorescence intensity (a.u.). With “TTGTTGTTTGGGTGAACCCGCGCGGCCATCATCGCACGCGCGGAGTCACCTAGTGCAG” the binding signal was 8450 fluorescence intensity (a.u.). “GCGTCATTAACTTGTTTTGCCTGCCACCGCCTTCTTGGTTCGGAGTCACCTAGTGCAG” was tested, and the binding signal was 12300 fluorescence intensity (a.u.). For “GTTCTATTCAGTTCTGCTACCTTTATCACATCACTTGCACCGGAGTCACCTAGTGCAG”, the binding signal was 9360 fluorescence intensity (a.u.). “GCTTCTAGTTCATTTTCTAGATTCCGTAACTACAGCTTCTCGGAGTCACCTAGTGCAG” was tested, and the binding signal was 9280 fluorescence intensity (a.u.). “GACGAAAGATCCACTTGCCGGTGACGACGTTGGCGCCATGCGGAGTCACCTAGTGCAG” was tested, and the binding signal was 8100 fluorescence intensity (a.u.). “TTGCCTCCAATTAACCCATTCAGTTTCTTCCGTATTTCTTCGGAGTCACCTAGTGCAG” was tested, and the binding signal was 8700 fluorescence intensity (a.u.).
